Measurements from publication PMC10202954.
No constants are given. Whether binding was seen depends on the method and setting. In cells and extracts the contact can be indirect. Some entries that bind do so weakly or less than the wild type.

Chains of the proteins cited; added tags and fusions are not shown.
UniProt Q8IY31: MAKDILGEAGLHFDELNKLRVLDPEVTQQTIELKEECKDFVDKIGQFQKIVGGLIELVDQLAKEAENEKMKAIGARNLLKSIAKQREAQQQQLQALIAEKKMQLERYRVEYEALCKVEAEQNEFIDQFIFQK
UniProt Q99816: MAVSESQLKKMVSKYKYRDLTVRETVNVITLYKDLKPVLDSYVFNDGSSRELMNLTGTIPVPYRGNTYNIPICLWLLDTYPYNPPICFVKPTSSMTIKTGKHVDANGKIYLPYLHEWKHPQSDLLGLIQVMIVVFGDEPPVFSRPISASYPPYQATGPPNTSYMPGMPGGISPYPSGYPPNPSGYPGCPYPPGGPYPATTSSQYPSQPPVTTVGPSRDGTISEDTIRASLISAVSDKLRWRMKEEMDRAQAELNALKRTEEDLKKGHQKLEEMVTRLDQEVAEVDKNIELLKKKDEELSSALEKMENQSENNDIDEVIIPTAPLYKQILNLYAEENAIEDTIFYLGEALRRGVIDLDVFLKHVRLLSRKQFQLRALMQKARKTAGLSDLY

Legend:
[1] = target: endogenous IFT20 of Jurkat cells (human (endogenous in Jurkat)) (UniProt Q8IY31); assay: co-IP; endogenous proteins; Jurkat cells unstimulated or stimulated with 1 ug/mL anti-CD3 and 1 ug/mL anti-CD28 for 24 h, lysed with 1% Triton X-100; IFT20 precipitated from 500 ug lysate on Protein A magnetic beads; immunoblot
[2] = target: strep-tag II tagged IFT20, overexpressed in HEK293T cells (UniProt Q8IY31); assay: co-IP; HEK293T cells transfected for 48 h, lysed with 1% Triton X-100; strep-tag II precipitated from 1000 ug lysate on Protein A magnetic beads; immunoblot for IFT20 and TSG101

Molecule: endogenous TSG101 of Jurkat cells (from UniProt Q99816 1-390)
- binding [1]: binds

B1: TSG101, overexpressed in HEK293T cells (protein, UniProt Q61187 1-391)
chain: MAVSESQLKKMMSKYKYRDLTVRQTVNVIAMYKDLKPVLDSYVFNDGSSRELVNLTGTIPVRYRGNIYNIPICLWLLDTYPYNPPICFVKPTSSMTIKTGKHVDANGKIYLPYLHDWKHPRSELLELIQIMIVIFGEEPPVFSRPTVSASYPPYTATGPPNTSYMPGMPSGISAYPSGYPPNPSGYPGCPYPPAGPYPATTSSQYPSQPPVTTVGPSRDGTISEDTIRASLISAVSDKLRWRMKEEMDGAQAELNALKRTEEDLKKGHQKLEEMVTRLDQEVAEVDKNIELLKKKDEELSSALEKMENQSENNDIDEVIIPTAPLYKQILNLYAEENAIEDTIFYLGEALRRGVIDLDVFLKHVRLLSRKQFQLRALMQKARKTAGLSDLY
- binding [2]: binds
